The data set can be described thus: general procedure: Fmoc solid-phase peptide synthesis. As to conditions: whole synthesis, TFA salt, several disulfide bridges, sequence written open.

Plain letter strings leave the end groups untold.

With RCRGSRDCLDPCRRAGMRFGRCINSRCHCTP, the “final purity (method not given)” value came to 96.8%.

Take GSGVPINVRCRGSRDCLDPCRRAGMRFGRCINSRCHCTP: the “final purity (method not given)” value was found to be 96.1%.
